Results from article doi:10.1101/2025.10.30.684516.
No constants are given. Whether binding was seen depends on the method and setting. Binding seen in cells or lysates may run through a third protein. These calls come from enrichment with a bait or labelling near it, and not all partners need be listed.

Protein sequences, listed by entry. Tags and fused reporters are not part of them.
UniProt P08670: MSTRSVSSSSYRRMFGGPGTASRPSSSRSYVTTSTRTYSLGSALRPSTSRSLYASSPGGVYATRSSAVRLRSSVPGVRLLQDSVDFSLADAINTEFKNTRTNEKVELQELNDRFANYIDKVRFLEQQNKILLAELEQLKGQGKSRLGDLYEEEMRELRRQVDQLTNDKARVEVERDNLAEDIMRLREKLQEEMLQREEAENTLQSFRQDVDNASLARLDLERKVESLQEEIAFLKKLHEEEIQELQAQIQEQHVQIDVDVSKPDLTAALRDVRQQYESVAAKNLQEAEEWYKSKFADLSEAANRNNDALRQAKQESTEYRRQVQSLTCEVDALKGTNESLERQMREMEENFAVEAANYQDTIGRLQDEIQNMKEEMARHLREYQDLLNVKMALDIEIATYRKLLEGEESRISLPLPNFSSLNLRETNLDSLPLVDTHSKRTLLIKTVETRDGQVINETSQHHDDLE

target: VIM-APEX2-GFP (UniProt P08670); experiment: proximity labelling

Row | binding | Binder
1 | binds | A2M (protein, UniProt P01023 24-1474) SVSGKPQYMVLVPSLLHTETTEKGCVLLSYLNETVTVSASLESVRGNRSLFTDLEAENDVLHCVAFAVPKSSSNEEVMFLTVQVKGPTQEFKKRTTVMVKNEDSLVFVQTDKSIYKPGQTVKFRVVSMDENFHPLNELIPLVYIQDPKGNRIAQWQSFQLEGGLKQFSFPLSSEPFQGSYKVVVQKKSGGRTEHPFTVEEFVLPKFEVQVTVPKIITILEEEMNVSVCGLYTYGKPVPGHVTVSICRKYSDASDCHGEDSQAFCEKFSGQLNSHGCFYQQVKTKVFQLKRKEYEMKLHTEAQIQEEGTVVELTGRQSSEITRTITKLSFVKVDSHFRQGIPFFGQVRLVDGKGVPIPNKVIFIRGNEANYYSNATTDEHGLVQFSINTTNVMGTSLTVRVNYKDRSPCYGYQWVSEEHEEAHHTAYLVFSPSKSFVHLEPMSHELPCGHTQTVQAHYILNGGTLLGLKKLSFYYLIMAKGGIVRTGTHGLLVKQEDMKGHFSISIPVKSDIAPVARLLIYAVLPTGDVIGDSAKYDVENCLANKVDLSFSPSQSLPASHAHLRVTAAPQSVCALRAVDQSVLLMKPDAELSASSVYNLLPEKDLTGFPGPLNDQDNEDCINRHNVYINGITYTPVSSTNEKDMYSFLEDMGLKAFTNSKIRKPKMCPQLQQYEMHGPEGLRVGFYESDVMGRGHARLVHVEEPHTETVRKYFPETWIWDLVVVNSAGVAEVGVTVPDTITEWKAGAFCLSEDAGLGISSTASLRAFQPFFVELTMPYSVIRGEAFTLKATVLNYLPKCIRVSVQLEASPAFLAVPVEKEQAPHCICANGRQTVSWAVTPKSLGNVNFTVSAEALESQELCGTEVPSVPEHGRKDTVIKPLLVEPEGLEKETTFNSLLCPSGGEVSEELSLKLPPNVVEESARASVSVLGDILGSAMQNTQNLLQMPYGCGEQNMVLFAPNIYVLDYLNETQQLTPEIKSKAIGYLNTGYQRQLNYKHYDGSYSTFGERYGRNQGNTWLTAFVLKTFAQARAYIFIDEAHITQALIWLSQRQKDNGCFRSSGSLLNNAIKGGVEDEVTLSAYITIALLEIPLTVTHPVVRNALFCLESAWKTAQEGDHGSHVYTKALLAYAFALAGNQDKRKEVLKSLNEEAVKKDNSVHWERPQKPKAPVGHFYEPQAPSAEVEMTSYVLLAYLTAQPAPTSEDLTSATNIVKWITKQQNAQGGFSSTQDTVVALHALSKYGAATFTRTGKAAQVTIQSSGTFSSKFQVDNNNRLLLQQVSLPELPGEYSMKVTGEGCVYLQTSLKYNILPEKEEFPFALGVQTLPQTCDEPKAHTSFQISLSVSYTGSRSASNMAIVDVKMVSGFIPLKPTVKMLERSNHVSRTEVSSNHVLIYLDKVSNQTLSLFFTVLQDVPVRDLKPAIVKVYDYYETDEFAIAEYNAPCSKDLGNA
2 | binds | DDX19A (protein, UniProt Q9NUU7 1-478) MATDSWALAVDEQEAAVKSMTNLQIKEEKVKADTNGIIKTSTTAEKTDEEEKEDRAAQSLLNKLIRSNLVDNTNQVEVLQRDPNSPLYSVKSFEELRLKPQLLQGVYAMGFNRPSKIQENALPMMLAEPPQNLIAQSQSGTGKTAAFVLAMLSRVEPSDRYPQCLCLSPTYELALQTGKVIEQMGKFYPELKLAYAVRGNKLERGQKISEQIVIGTPGTVLDWCSKLKFIDPKKIKVFVLDEADVMIATQGHQDQSIRIQRMLPRNCQMLLFSATFEDSVWKFAQKVVPDPNVIKLKREEETLDTIKQYYVLCSSRDEKFQALCNLYGAITIAQAMIFCHTRKTASWLAAELSKEGHQVALLSGEMMVEQRAAVIERFREGKEKVLVTTNVCARGIDVEQVSVVINFDLPVDKDGNPDNETYLHRIGRTGRFGKRGLAVNMVDSKHSMNILNRIQEHFNKKIERLDTDDLDEIEKIAN
3 | binds | RER1 (protein, UniProt O15258 1-196) MSEGDSVGESVHGKPSVVYRFFTRLGQIYQSWLDKSTPYTAVRWVVTLGLSFVYMIRVYLLQGWYIVTYALGIYHLNLFIAFLSPKVDPSLMEDSDDGPSLPTKQNEEFRPFIRRLPEFKFWHAATKGILVAMVCTFFDAFNVPVFWPILVMYFIMLFCITMKRQIKHMIKYRYIPFTHGKRRYRGKEDAGKAFAS
4 | binds | ARMCX3 (protein, UniProt Q9UH62 1-379) MGYARKVGWVTAGLVIGAGACYCIYRLTRGRKQNKEKMAEGGSGDVDDAGDCSGARYNDWSDDDDDSNESKSIVWYPPWARIGTEAGTRARARARARATRARRAVQKRASPNSDDTVLSPQELQKVLCLVEMSEKPYILEAALIALGNNAAYAFNRDIIRDLGGLPIVAKILNTRDPIVKEKALIVLNNLSVNAENQRRLKVYMNQVCDDTITSRLNSSVQLAGLRLLTNMTVTNEYQHMLANSISDFFRLFSAGNEETKLQVLKLLLNLAENPAMTRELLRAQVPSSLGSLFNKKENKEVILKLLVIFENINDNFKWEENEPTQNQFGEGSLFFFLKEFQVCADKVLGIESHHDFLVKVKVGKFMAKLAEHMFPKSQE
5 | binds | TWF2 (protein, UniProt Q6IBS0 1-349) MAHQTGIHATEELKEFFAKARAGSVRLIKVVIEDEQLVLGASQEPVGRWDQDYDRAVLPLLDAQQPCYLLYRLDSQNAQGFEWLFLAWSPDNSPVRLKMLYAATRATVKKEFGGGHIKDELFGTVKDDLSFAGYQKHLSSCAAPAPLTSAERELQQIRINEVKTEISVESKHQTLQGLAFPLQPEAQRALQQLKQKMVNYIQMKLDLERETIELVHTEPTDVAQLPSRVPRDAARYHFFLYKHTHEGDPLESVVFIYSMPGYKCSIKERMLYSSCKSRLLDSVEQDFHLEIAKKIEIGDGAELTAEFLYDEVHPKQHAFKQAFAKPKGPGGKRGHKRLIRGPGENGDDS
6 | binds | LASP1 (protein, UniProt Q14847 1-261) MNPNCARCGKIVYPTEKVNCLDKFWHKACFHCETCKMTLNMKNYKGYEKKPYCNAHYPKQSFTMVADTPENLRLKQQSELQSQVRYKEEFEKNKGKGFSVVADTPELQRIKKTQDQISNIKYHEEFEKSRMGPSGGEGMEPERRDSQDGSSYRRPLEQQQPHHIPTSAPVYQQPQQQPVAQSYGGYKEPAAPVSIQRSAPGGGGKRYRAVYDYSAADEDEVSFQDGDTIVNVQQIDDGWMYGTVERTGDTGMLPANYVEAI
7 | binds | CSRP1 (protein, UniProt P21291 1-193) MPNWGGGKKCGVCQKTVYFAEEVQCEGNSFHKSCFLCMVCKKNLDSTTVAVHGEEIYCKSCYGKKYGPKGYGYGQGAGTLSTDKGESLGIKHEEAPGHRPTTNPNASKFAQKIGGSERCPRCSQAVYAAEKVIGAGKSWHKACFRCAKCGKGLESTTLADKDGEIYCKGCYAKNFGPKGFGFGQGAGALVHSE
8 | binds | PPP6C (protein phosphatase 6 catalytic subunit) (protein, UniProt O00743 1-305) MAPLDLDKYVEIARLCKYLPENDLKRLCDYVCDLLLEESNVQPVSTPVTVCGDIHGQFYDLCELFRTGGQVPDTNYIFMGDFVDRGYYSLETFTYLLALKAKWPDRITLLRGNHESRQITQVYGFYDECQTKYGNANAWRYCTKVFDMLTVAALIDEQILCVHGGLSPDIKTLDQIRTIERNQEIPHKGAFCDLVWSDPEDVDTWAISPRGAGWLFGAKVTNEFVHINNLKLICRAHQLVHEGYKFMFDEKLVTVWSAPNYCYRCGNIASIMVFKDVNTREPKLFRAVPDSERVIPPRTTTPYFL
9 | binds | CLTA (protein, UniProt P09496 1-248) MAELDPFGAPAGAPGGPALGNGVAGAGEEDPAAAFLAQQESEIAGIENDEAFAILDGGAPGPQPHGEPPGGPDAVDGVMNGEYYQESNGPTDSYAAISQVDRLQSEPESIRKWREEQMERLEALDANSRKQEAEWKEKAIKELEEWYARQDEQLQKTKANNRVADEAFYKQPFADVIGYVTNINHPCYSLEQAAEEAFVNDIDESSPGTEWERVARLCDFNPKSSKQAKDVSRMRSVLISLKQAPLVH
